Record: PubChem BioAssay AID1508588 (Peter MacCallum Cancer Centre, 2020)
Test: 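Genome-wide search for knock-downs that heighten vemurafenib action in melanoma cells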 (primary screen). Cells: human WM266.4 melanoma cells (BRAF V600 mutant). Reagent: siRNA pool against human genes, 40 nM. Timing: 96 h from transfection to read-out. Challenge: vemurafenib 300 nM (about IC25), added 48 h after transfection, for 48 h; comparison arm got DMSO vehicle only. Measurement: 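Cell gain (DAPI nuclei at end minus before drug, mean of two replicates) and medium lactate by absorbance per cell, both as ratio to non-targeting siRNA, also grouped into fold-change classes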. Reading the numbers: cell gain with vemurafenib: higher = more cell gain than with non-targeting siRNA; lactate per cell with vemurafenib: higher = more lactate made per cell. Hit rule: 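a knock-down counts as enhancing when its fold-change classes with vehicle and with vemurafenib, taken together, show a stronger drug effect on cell gain or lactate per cell; exact class pairs not stated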. Meaning of the calls: active = enhances vemurafenib effect; inactive = no enhancement seen.
Shown is a random part of about 18,000 reagents tested. Of all reagents, 790 (4.4%) are marked active. 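Calls rest on a combination of fold-change classes in drug and vehicle arms, not all shown here.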 A number with no mark means an inactive call.

The first 6 entries, to show the layout:
target gene	cell gain with vemurafenib	lactate per cell with vemurafenib
TEAD3	0.84	0.96
ETV7	0.83	0.63
IFI27	0.58	0.84
DBH	0.94	0.68
BIRC6	0.71	0.7
OPRM1	0.76	0.76

The list itself, from the start:
target gene	cell gain with vemurafenib	lactate per cell with vemurafenib
TEAD3	0.84	0.96
ETV7	0.83	0.63
IFI27	0.58	0.84
DBH	0.94	0.68
BIRC6	0.71	0.7
OPRM1	0.76	0.76
UBE2QL1	0.07	1.43
ZNF746	0.58	1.89
KCTD8	0.28 (active)	0.24
DCHS1	0.11	2.33
NPY4R	0.59	0.57
ZNF177	0.98 (active)	0.47
ARRDC2	0.27	2.33
FBRS	0.27	1.1
KLK2	0.9	0.92
POLR3F	0.09	1
TM9SF3	0.12	1.91
SPATA2L	0.26	1.81
ZNF586	0.15	1.07
ADORA2B	0.59 (active)	0.68
NSMAF	0.66	1.28
SLC22A17	0.97	1.01
SDR42E1	0.77	0.89
PDE6G	0.55	0.92
HOXD12	0.21	0.73
MELTF	0.59	1.42
APBB1IP	0.37	1.6
GAL	0.93	1.64
IFNGR1	0.48	0.46
TIGAR	0.78	0.66
FBXL20	0.58	0.91
STRIP2	0.35	1.5
OR8G1	0.04	1.42
CAMSAP1	0.86	0.72
ZKSCAN8	0.47	1.11
FOXE3	1.01	0.88
PCBP3	0.07	1.01
MYOM2	0.83	0.63
SCOC	0.48	1.46
EPS15L1	0.32	1.18
RASGRP1	0.77	0.46
LIN9	0.49	1.49
RNF113A	0.87	0.5
UFC1	0.82	1.66
OR1I1	0.29	0.06
CLCN4	0.41	1.35
PI4K2A	0.62	1.02
STPG1	0.27	2.06
CENPB	1.22	0.7
NYAP1	1.12	0.71
RANBP3L	0.92	0.42
SPATA7	0.68	1.17
SLC35E1	1.67	0.4
NENF	0.56	1.17
ANKRA2	1.08	0.8
PDE6H	0.45	1.81
ZCCHC7	0.21	2.33
ATP1B4	0.88	0.53
SPATA12	0.5	0.87
C20orf141	0.43	1.23
PPIP5K1	0.82	0.5
NECTIN1	0.9	0.94
ZNF287	-0.05	1.99
HOXB5	0.82	0.8
APOA2	0.2	2.05
RAB3GAP2	0.8	0.52
NTRK2	0.97	0.62
DCAF4L2	0.58	0.9
SLC25A22	0.52	0.52
ZNF688	0.8	0.74
KLK9	0.45	1.2
PIGQ	0.54	0.7
TRPM2	1.06	0.62
SERINC5	0.46 (active)	0.41
FAM124B	0.54	0.71
IQCB1	0.37 (active)	0.46
UBASH3B	0.56	0.87
PIGA	1.18	0.68
GNA13	1.07	0.55
APOOL	1.08	0.98
COPG2	0.43	1.73
PRKX	0.7	0.57
SNAPC1	0.71	0.28
AKAP17A	0.6	1.09
